Assay results published in paper PMC8423755.
Results are given in words; binding and its absence hold for the method and conditions named. In cells and extracts the contact can be indirect. Some entries that bind do so weakly or less than the wild type. For some of these results: Where a sequence is shown, tags or fusion partners need not be part of it.

How the values were obtained:
[1] = biological target: T1, CARM1 (human (endogenous in A1847)) (UniProt Q86X55); assay: proximity ligation; in situ PLA in fixed, permeabilised cells treated with or without tunicamycin; rabbit anti-XBP1 and mouse anti-CARM1 primary antibodies; isotype-matched IgG as negative control
T1 sequence: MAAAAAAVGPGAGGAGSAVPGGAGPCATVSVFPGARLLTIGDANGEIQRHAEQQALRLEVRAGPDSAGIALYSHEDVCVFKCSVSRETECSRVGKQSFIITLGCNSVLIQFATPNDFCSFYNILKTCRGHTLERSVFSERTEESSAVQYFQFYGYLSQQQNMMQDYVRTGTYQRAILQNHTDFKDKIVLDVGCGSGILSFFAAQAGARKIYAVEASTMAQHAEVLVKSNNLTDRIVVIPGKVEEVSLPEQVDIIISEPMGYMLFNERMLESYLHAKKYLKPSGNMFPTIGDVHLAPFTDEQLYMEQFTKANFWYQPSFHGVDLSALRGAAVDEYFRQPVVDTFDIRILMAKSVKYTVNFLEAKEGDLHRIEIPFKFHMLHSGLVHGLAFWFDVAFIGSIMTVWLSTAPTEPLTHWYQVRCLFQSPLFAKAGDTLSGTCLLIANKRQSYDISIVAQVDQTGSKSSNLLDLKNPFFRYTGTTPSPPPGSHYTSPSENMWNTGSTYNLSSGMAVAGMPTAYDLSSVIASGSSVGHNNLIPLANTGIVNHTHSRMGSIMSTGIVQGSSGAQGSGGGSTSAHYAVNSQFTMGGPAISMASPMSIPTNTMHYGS

[2] = biological target: T2, GST-tagged CARM1 (human) (UniProt Q86X55); assay: pull-down; GST-CARM1 or GST-CARM1 truncation mutants on glutathione-sepharose beads, mixed with extracts of A1847 cells treated with vehicle or tunicamycin (5 ug/ml, 8 h), 4 C, 4 h, buffer A with 150 mM NaCl; western blot; only the target purified
T2 sequence: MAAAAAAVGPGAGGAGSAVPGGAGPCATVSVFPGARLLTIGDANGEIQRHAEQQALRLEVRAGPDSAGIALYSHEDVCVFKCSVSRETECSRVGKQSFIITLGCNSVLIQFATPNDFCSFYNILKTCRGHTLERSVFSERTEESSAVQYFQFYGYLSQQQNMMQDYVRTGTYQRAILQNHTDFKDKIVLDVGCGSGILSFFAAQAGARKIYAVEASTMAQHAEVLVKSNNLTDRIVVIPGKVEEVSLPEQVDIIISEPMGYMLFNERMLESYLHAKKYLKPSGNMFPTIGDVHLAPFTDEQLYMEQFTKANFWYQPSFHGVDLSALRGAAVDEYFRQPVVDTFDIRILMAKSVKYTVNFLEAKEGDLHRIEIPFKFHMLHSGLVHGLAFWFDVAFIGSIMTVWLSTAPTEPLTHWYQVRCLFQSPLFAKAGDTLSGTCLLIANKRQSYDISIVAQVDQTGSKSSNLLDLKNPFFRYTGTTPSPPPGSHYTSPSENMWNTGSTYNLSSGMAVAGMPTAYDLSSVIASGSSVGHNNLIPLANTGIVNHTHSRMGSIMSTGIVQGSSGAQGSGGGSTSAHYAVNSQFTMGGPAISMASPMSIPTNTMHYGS

[3] = biological target: T3, GST-tagged CARM1 catalytic domain (141-480) (human) (UniProt Q86X55); assay: as above
T3 sequence: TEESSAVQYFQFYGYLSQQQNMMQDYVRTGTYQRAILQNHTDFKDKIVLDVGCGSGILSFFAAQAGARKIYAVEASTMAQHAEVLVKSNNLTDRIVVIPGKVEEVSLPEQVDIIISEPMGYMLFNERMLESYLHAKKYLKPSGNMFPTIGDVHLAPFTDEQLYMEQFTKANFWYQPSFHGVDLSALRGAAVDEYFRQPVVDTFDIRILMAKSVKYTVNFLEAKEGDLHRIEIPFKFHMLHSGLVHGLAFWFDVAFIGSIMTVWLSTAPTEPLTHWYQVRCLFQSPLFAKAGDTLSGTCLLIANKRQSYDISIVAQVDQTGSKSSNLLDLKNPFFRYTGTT

[4] = biological target: T1, CARM1 (human (endogenous in A1847)); assay: co-IP; anti-CARM1 antibody (control IgG) with protein A + G Dynabeads in extracts of A1847 cells treated with or without tunicamycin (5 ug/ml, 8 h); washes in buffer A with 150 mM NaCl; western blot

binding [1]: binds
binding [2]: binds
binding [3]: binds
binding [4]: binds
B1: spliced XBP1 (XBP1s) (protein, UniProt P17861-2 1-376)
chain: MVVVAAAPNPADGTPKVLLLSGQPASAAGAPAGQALPLMVPAQRGASPEAASGGLPQARKRQRLTHLSPEEKALRRKLKNRVAAQTARDRKKARMSELEQQVVDLEEENQKLLLENQLLREKTHGLVVENQELRQRLGMDALVAEEEAEAKGNEVRPVAGSAESAAGAGPVVTPPEHLPMDSGGIDSSDSESDILLGILDNLDPVMFFKCPSPEPASLEELPEVYPEGPSSLPASLSLSVGTSSAKLEAINELIRFDHIYTKPLVLEIPSETESQANVVVKIEEAPLSPSENDHPEFIVSVKEEPVEDDLVPELGISNLLSSSHCPKPSSCLLDAYSDCGYGGSLSPFSDMSSLLGVNHSWEDTFANELFPQLISV
